In US20220000974A1:
Results are given in words; binding and its absence hold for the method and conditions named. In cells and extracts the contact can be indirect. Some binding calls cover weakened binding; strength is not graded here.

By UniProt entry, the sequences of proteins in these tests, tags left out.
UniProt P29351: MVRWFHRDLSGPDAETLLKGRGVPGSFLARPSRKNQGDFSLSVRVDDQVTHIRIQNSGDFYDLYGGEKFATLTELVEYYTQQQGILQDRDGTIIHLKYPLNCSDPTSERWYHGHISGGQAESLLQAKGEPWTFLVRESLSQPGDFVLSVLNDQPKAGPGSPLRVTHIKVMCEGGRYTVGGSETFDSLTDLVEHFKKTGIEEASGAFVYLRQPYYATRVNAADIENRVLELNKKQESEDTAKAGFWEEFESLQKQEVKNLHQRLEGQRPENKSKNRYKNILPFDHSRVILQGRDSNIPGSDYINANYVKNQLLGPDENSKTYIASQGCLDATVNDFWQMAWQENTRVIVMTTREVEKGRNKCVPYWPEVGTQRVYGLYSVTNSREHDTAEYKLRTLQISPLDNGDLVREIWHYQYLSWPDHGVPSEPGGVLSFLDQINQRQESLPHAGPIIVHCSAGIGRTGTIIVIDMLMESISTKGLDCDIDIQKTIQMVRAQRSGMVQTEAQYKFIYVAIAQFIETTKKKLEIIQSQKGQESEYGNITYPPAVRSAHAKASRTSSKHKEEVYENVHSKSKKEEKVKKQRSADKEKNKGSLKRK

Experiments:
[1] = target: T1, endogenous Siglec E of mouse spleen cells and peritoneal macrophages (mouse) (UniProt Q91Y57); test: co-immunoprecipitation from WT spleen cell lysate, Western blot (FIG. 12c)
T1 sequence (looked up): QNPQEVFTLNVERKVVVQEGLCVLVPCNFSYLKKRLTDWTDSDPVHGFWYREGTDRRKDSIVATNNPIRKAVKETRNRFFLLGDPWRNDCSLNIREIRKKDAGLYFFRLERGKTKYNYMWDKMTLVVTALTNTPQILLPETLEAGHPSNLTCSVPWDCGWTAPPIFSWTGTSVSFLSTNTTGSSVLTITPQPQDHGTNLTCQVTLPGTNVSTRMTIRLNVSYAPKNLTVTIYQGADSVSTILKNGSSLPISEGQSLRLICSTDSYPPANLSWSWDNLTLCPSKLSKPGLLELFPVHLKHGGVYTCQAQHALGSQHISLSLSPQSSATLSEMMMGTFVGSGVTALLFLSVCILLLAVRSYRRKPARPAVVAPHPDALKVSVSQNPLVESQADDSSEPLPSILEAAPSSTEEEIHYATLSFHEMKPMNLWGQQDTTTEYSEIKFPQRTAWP

[2] = target: T2, endogenous Siglec G from mouse spleen cells (mouse) (UniProt Q80ZE3); test: as above
T2 sequence (looked up): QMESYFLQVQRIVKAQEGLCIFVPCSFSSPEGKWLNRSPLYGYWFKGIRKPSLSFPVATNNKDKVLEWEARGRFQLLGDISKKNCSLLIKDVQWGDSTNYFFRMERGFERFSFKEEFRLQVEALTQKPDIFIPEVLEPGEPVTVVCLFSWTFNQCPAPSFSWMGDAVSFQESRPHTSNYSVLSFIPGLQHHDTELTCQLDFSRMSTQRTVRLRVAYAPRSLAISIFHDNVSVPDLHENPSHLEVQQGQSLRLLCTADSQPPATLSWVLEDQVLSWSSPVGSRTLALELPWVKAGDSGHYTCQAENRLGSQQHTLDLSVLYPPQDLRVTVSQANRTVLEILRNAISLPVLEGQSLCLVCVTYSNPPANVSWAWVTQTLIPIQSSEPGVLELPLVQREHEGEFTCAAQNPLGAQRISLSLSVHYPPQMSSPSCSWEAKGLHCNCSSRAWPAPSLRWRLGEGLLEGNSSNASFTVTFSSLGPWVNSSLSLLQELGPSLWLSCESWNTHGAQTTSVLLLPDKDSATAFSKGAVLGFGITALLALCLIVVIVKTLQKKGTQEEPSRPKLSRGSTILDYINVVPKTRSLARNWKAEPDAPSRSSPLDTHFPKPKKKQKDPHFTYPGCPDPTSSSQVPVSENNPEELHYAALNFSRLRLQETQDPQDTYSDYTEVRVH

[3] = target: T1, endogenous Siglec E of mouse spleen cells and peritoneal macrophages (mouse); test: co-immunoprecipitation from spleen cell lysate, Western blot (FIG. 12c)
[4] = target: T2, endogenous Siglec G from mouse spleen cells (mouse); test: as above

Measured: binding

SHP-1, endogenous, from mouse spleen cells (from UniProt P29351 1-595) (enzyme)
binds: all assays above
